From US8569242B2, “Method of treating degenerative disorders of the nervous system” (The Regents of the University of California, priority 2005, dated 2013)
Entries after “also recorded” stand apart in the source; their conditions may differ. At least one compound was matched to its structure with a doubt left.

Tested on: primary murine microglia and a murine microglia cell line (BV2)
Assay: Vybrant phagocytosis assay in microglia
Type: cell-based, mouse
Conditions: LY294002 1 μM; antibodies 10 μg/mL
Description: Phagocytosis assay. Phagocytosis assays were performed on both primary murine microglia and a murine microglia cell line (BV2). BV2 cells are an established cell line used to study microglia responses (46). BV2 cells were routinely passaged in DMEM, 20% heat inactivated FBS, and 1% Pen/Strep. Microglia phagocytosis was assessed using the Vybrant phagocytosis assay kit (Molecular Probes, Eugene, Oreg.) according to the manufacturer's recommendations. Microglia were cultured in 96-well plates at 5,000 cells/well for 36 hours at 37° C. Blocking experiments included the addition of LY294002 (1 μM, Cell Signaling, Beverly, Mass.), rat anti-CD11b ([…], eBioscience, San Diego, Calif.), rat anti-TLR4 (10 μg/mL, eBioscience, San Diego, Calif.) or rat IgG (10 μg/mL, Jackson ImmunoResearch Laboratories, West Grove, Pa.) to the media. Results were obtained from four separate experiments performed in triplicates. Statistical calculations were made by using Student's t-test.

With `O=c1cc(N2CCOCC2)oc2c(-c3ccccc3)cccc12` [LY294002] the “effect on fibrinogen-stimulated increase of phagocytosis (in words)” value was “inhibited; also recorded: blocked”.
